In patent US20170137511A1:
These are yes or no findings as the source states them, for the method shown. Some entries that bind do so weakly or less than the wild type.

T1: IL-15 peptide fragment stretch 61…72 (human)
T1 sequence (peptide): DTVENLIILANN


Target: T1, IL-15 peptide fragment stretch 61…72 (human)
Assay: CLIPS/PEPSCAN peptide array ELISA

| binding | Binder |
| --- | --- |
| binds | huB-E29-10 (antibody, human IgG1, kappa, V domains shown) VH: EVRLMASGGGLVQPGGSLRLSCAASEFTFSNYAMSWVRQAPGKGLEWVATISRGGDYTYYPDTVKGRFTISRDNSKNTLYLQMNSLRAEDTAVYYCARRVSMITGGYAMDYWGQGTLVTVSS VL: DVVMTQSPLSLPVTLGQPASISCRSSQSIVDITGNTYLEWYQQRPGQSPRLLIYKVFNRFSGVPDRFSGSGSGTDFTLKISRVEAEDVGVYYCFQDSFVPYTFGQGTKLEIKR |
| binds | huB-E29-24 (antibody, human IgG1, kappa, V domains shown) VH: EVQLVESGGGLVQPGGSLRLSCAASEFTFSNYAMSWVRQAPGKGLEWVATISRGGDYTYYPDSVKGRFTISRDNSKNTLYLQMNSLRAEDTAVYYCARRVSMITGGYAMDYWGQGTLVTVSS VL: DVVMTQSPLSLPVTLGQPASISCRSSQSIVDITGNTYLEWYQQRPGQSPRLLIYKVFNRFSGVPDRFSGSGSGTDFTLKISRVEAEDVGVYYCFQDSFVPYTFGQGTKLEIKR |
